# Taken from: PubChem BioAssay AID1259301 (Sanger Institute, 2017)
# Aim: 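Synthetic lethal pairings of kinase siRNAs with targeted drugs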 (secondary rescreen of primary hits using four separate siRNAs per gene)
# System: LS180 human colorectal cancer cells
# Reagent: single siRNA against human genes
# Treatment: anchor drug BYL719 at 1 µM, cetuximab at 5 µg/ml or trametinib at 10 nM, each against a DMSO vehicle arm
# Read-out: 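Replicate mean of viability versus control pool 2 (non-targeting), and for every anchor drug a synergy score assessed against the drug by itself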
# Reading the numbers: synergy score with BYL719 and synergy score with cetuximab and synergy score with trametinib: higher = stronger synergistic (synthetic lethal) killing; viability with siRNA alone (DMSO): higher = more cells survive
# Hit rule: 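a gene is called when its synergy score is above 0.10 for one or more of the three anchor drugs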
# Calls: active = synergy with at least one drug; inactive = no synergy with any drug
# This is one part, drawn at random, of 160 reagents tested. 67 of all reagents (42%) count as active. 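Calls rest on synergy in any drug arm, not on siRNA-alone viability; rescreen tested four distinct siRNAs for each gene.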 Entries without a mark were called inactive. Reagents against one gene are numbered here. Not given: the amount of reagent, the time to read-out.
gene symbol,reagent,synergy score with BYL719,synergy score with cetuximab,synergy score with trametinib,viability with siRNA alone (DMSO) (fraction of control)
"PFKFB3 (6-phosphofructo-2-kinase/fructose-2,6-biphosphatase 3)",1,-0.0915,-0.00866,0.0198,0.417
"PFKFB3 (6-phosphofructo-2-kinase/fructose-2,6-biphosphatase 3)",2,0.0682 (active),-0.0297,0.172,0.509
"PFKFB3 (6-phosphofructo-2-kinase/fructose-2,6-biphosphatase 3)",3,-0.123,0.00616,-0.0179,0.659
"PFKFB3 (6-phosphofructo-2-kinase/fructose-2,6-biphosphatase 3)",4,-0.0914 (active),-0.0838,0.115,0.731
MAP3K8 (mitogen-activated protein kinase kinase kinase 8),1,0.0587,-0.0855,0.0638,0.916
MAP3K8 (mitogen-activated protein kinase kinase kinase 8),2,-0.0179,-0.184,-0.0334,0.297
MAP3K8 (mitogen-activated protein kinase kinase kinase 8),3,-0.0724,-0.142,-0.128,0.354
MAP3K8 (mitogen-activated protein kinase kinase kinase 8),4,-0.0194 (active),0.0783,0.13,0.734
GRK5 (G protein-coupled receptor kinase 5),1,-0.144 (active),0.03,0.264,0.959
GRK5 (G protein-coupled receptor kinase 5),2,0.053 (active),0.27,0.297,1
GRK5 (G protein-coupled receptor kinase 5),3,0.157 (active),0.12,0.211,0.895
GRK5 (G protein-coupled receptor kinase 5),4,0.0573,0.0899,0.0737,0.837
MPP3 (MAGUK p55 scaffold protein 3),1,-0.052,-0.0482,0.03,0.854
MPP3 (MAGUK p55 scaffold protein 3),2,-0.121,-0.0708,0.0199,0.58
MPP3 (MAGUK p55 scaffold protein 3),3,-0.0541 (active),0.00886,0.287,0.79
MPP3 (MAGUK p55 scaffold protein 3),4,-0.124,0.0273,0.0961,0.656
COASY (Coenzyme A synthase),1,-0.157,-0.0833,-0.0939,0.409
COASY (Coenzyme A synthase),2,0.00905 (active),0.0813,0.123,0.557
COASY (Coenzyme A synthase),3,-0.101,0.0533,0.0312,0.194
COASY (Coenzyme A synthase),4,-0.0508,0.0171,-0.181,0.424

A portion taken from the entries so far, as a working copy:
gene symbol,reagent,synergy score with BYL719,synergy score with cetuximab,synergy score with trametinib,viability with siRNA alone (DMSO) (fraction of control)
"PFKFB3 (6-phosphofructo-2-kinase/fructose-2,6-biphosphatase 3)",3,-0.123,0.00616,-0.0179,0.659
"PFKFB3 (6-phosphofructo-2-kinase/fructose-2,6-biphosphatase 3)",4,-0.0914 (active),-0.0838,0.115,0.731
MAP3K8 (mitogen-activated protein kinase kinase kinase 8),1,0.0587,-0.0855,0.0638,0.916

The listing continues.
gene symbol,reagent,synergy score with BYL719,synergy score with cetuximab,synergy score with trametinib,viability with siRNA alone (DMSO) (fraction of control)
IRAK1 (interleukin 1 receptor associated kinase 1),1,0.0229 (active),-0.113,0.242,0.806
IRAK1 (interleukin 1 receptor associated kinase 1),2,0.0513,-0.0374,-0.0912,0.859
IRAK1 (interleukin 1 receptor associated kinase 1),3,-0.0502,-0.14,-0.0104,0.591
IRAK1 (interleukin 1 receptor associated kinase 1),4,0.394 (active),-0.0163,-0.293,0.851
NR2F2 (nuclear receptor subfamily 2 group F member 2),1,-0.068 (active),-0.119,0.135,0.927
NR2F2 (nuclear receptor subfamily 2 group F member 2),2,0.064,0.0916,-0.0107,0.903
NR2F2 (nuclear receptor subfamily 2 group F member 2),3,-0.00996 (active),0.201,0.113,1
NR2F2 (nuclear receptor subfamily 2 group F member 2),4,-0.121 (active),0.0911,0.175,0.655
CAMK2N1 (calcium/calmodulin dependent protein kinase II inhibitor 1),1,0.0373 (active),-0.046,0.174,0.854
CAMK2N1 (calcium/calmodulin dependent protein kinase II inhibitor 1),2,0.261 (active),-0.193,-0.211,0.689
CAMK2N1 (calcium/calmodulin dependent protein kinase II inhibitor 1),3,0.0496,-0.0778,-0.0748,0.687
CAMK2N1 (calcium/calmodulin dependent protein kinase II inhibitor 1),4,0.0849,0.0718,-0.0316,0.513
"BRAF (B-Raf proto-oncogene, serine/threonine kinase)",1,-0.138,-0.141,-0.215,0.719
"BRAF (B-Raf proto-oncogene, serine/threonine kinase)",2,0.0427,-0.0485,-0.075,0.471
"BRAF (B-Raf proto-oncogene, serine/threonine kinase)",3,-0.15,-0.0838,0.0603,0.402
"BRAF (B-Raf proto-oncogene, serine/threonine kinase)",4,-0.0708,-0.0936,0.0181,0.544
HUNK (hormonally up-regulated Neu-associated kinase),1,0.0487 (active),0.198,0.0292,0.526
HUNK (hormonally up-regulated Neu-associated kinase),2,0.0461 (active),0.121,-0.00173,0.528
HUNK (hormonally up-regulated Neu-associated kinase),3,0.025 (active),0.061,0.184,0.541
HUNK (hormonally up-regulated Neu-associated kinase),4,0.121 (active),0.13,0.263,0.77
PIK3CA,1,-0.105 (active),0.0474,0.138,0.545
PIK3CA,2,-0.113 (active),0.146,0.135,0.548
PIK3CA,3,-0.194 (active),-0.0554,0.112,0.57
PIK3CA,4,-0.358,-0.0956,0.0718,0.58
CSNK2A2 (casein kinase 2 alpha 2),1,0.102 (active),-0.188,0.252,0.933
CSNK2A2 (casein kinase 2 alpha 2),2,0.144 (active),0.0944,0.0958,0.75
CSNK2A2 (casein kinase 2 alpha 2),3,-0.172,-0.0071,0.0753,0.732
CSNK2A2 (casein kinase 2 alpha 2),4,-0.0422,-0.023,0.000601,0.211
BMPR2 (bone morphogenetic protein receptor type 2),1,0.00424,-0.0604,0.0018,0.849
BMPR2 (bone morphogenetic protein receptor type 2),2,-0.0265,-0.0629,0.0721,0.603
BMPR2 (bone morphogenetic protein receptor type 2),3,-0.032 (active),0.071,0.137,0.902
BMPR2 (bone morphogenetic protein receptor type 2),4,-0.0902,-0.129,0.0424,1
NLK (nemo like kinase),1,-0.113,0.0459,0.0746,0.854
NLK (nemo like kinase),2,-0.088,-0.0278,0.0843,0.745
NLK (nemo like kinase),3,-0.249,-0.0589,-0.113,0.807
NLK (nemo like kinase),4,-0.173,-0.161,0.0419,0.725
MAPKAPK2 (MAPK activated protein kinase 2),1,0.139 (active),-0.14,0.0525,0.744
MAPKAPK2 (MAPK activated protein kinase 2),2,-0.0183,-0.26,0.0169,0.684
MAPKAPK2 (MAPK activated protein kinase 2),3,-0.0423,-0.0745,0.0259,0.482
MAPKAPK2 (MAPK activated protein kinase 2),4,0.117 (active),0.0113,0.211,0.794
